Assay: general procedure: Fmoc solid-phase peptide synthesis; Fmoc-Gly-SASRIN; HBTU
Conditions: whole synthesis, side-chain lactam ring, sequence written open

Question: With “Cpr-Lys-(CH(CH3)(C13H27))-Lys-(Lys-Leu-Phe-Gly)” as the substance, how does the isolated yield (overall) read?
Answer: 24%

Question: What about the crude mass of the same substance?
Answer: 1.2 g

Question: And the isolated mass?
Answer: 480 mg

Reference: patent publication US20040077549A1 (priority 2000, published 2004)
